We go through two molecules from PMC7595112, “Ketohexokinase-A acts as a nuclear protein kinase that mediates fructose-induced metastasis in breast cancer” (Nature Communications, 2020).

No constants are given. Whether binding was seen depends on the method and setting. Binding seen in cells or lysates may run through a third protein. A yes stands for co-enrichment or nearness to the bait. Other partners may have been found. Sequences can lack the tags named with a protein.

This assay deals with T1, His-KHK-A expressed in breast-cancer cells (human) (UniProt P50053).
T1 sequence: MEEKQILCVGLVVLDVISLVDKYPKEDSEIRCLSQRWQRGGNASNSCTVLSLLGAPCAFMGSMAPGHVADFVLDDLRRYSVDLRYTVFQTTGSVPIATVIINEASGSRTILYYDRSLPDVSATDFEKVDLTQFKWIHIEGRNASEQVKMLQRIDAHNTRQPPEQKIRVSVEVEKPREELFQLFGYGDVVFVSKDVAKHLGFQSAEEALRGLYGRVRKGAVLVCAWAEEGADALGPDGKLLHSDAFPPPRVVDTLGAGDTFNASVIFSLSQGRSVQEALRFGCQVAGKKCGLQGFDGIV
Put plainly: affinity purification with mass spectrometry; MCF-7 and MDA-MB-231 transfected with His-KHK-A, with or without 5 mM fructose for 8 h; lysates on nickel-NTA beads at 4 °C for 4 h, eluted with 250 mM imidazole, LC-MS/MS.

B1: tyrosine 3-monooxygenase/tryptophan 5-monooxygenase activation protein Eta (YWHAH), endogenous (protein, UniProt Q04917 1-246)
chain: MGDREQLLQRARLAEQAERYDDMASAMKAVTELNEPLSNEDRNLLSVAYKNVVGARRSSWRVISSIEQKTMADGNEKKLEKVKAYREKIEKELETVCNDVLSLLDKFLIKNCNDFQYESKVFYLKMKGDYYRYLAEVASGEKKNSVVEASEAAYKEAFEISKEQMQPTHPIRLGLALNFSVFYYEIQNAPEQACLLAKQAFDDAIAELDTLNEDSYKDSTLIMQLLRDNLTLWTSDQQDEEAGEGN
On to B1, for which the binding entry is “binds”.

B2: glyoxalase domain-containing protein 4 (GLOD4), endogenous (protein, UniProt Q9HC38 1-313)
chain: MAARRALHFVFKVGNRFQTARFYRDVLGMKVESCSVARLECSGAISAHCSDYTRITEDSFSKPYDGKWSKTMVGFGPEDDHFVAELTYNYGVGDYKLGNDFMGITLASSQAVSNARKLEWPLTEVAEGVFETEAPGGYKFYLQNRSLPQSDPVLKVTLAVSDLQKSLNYWCNLLGMKIYEKDEEKQRALLGYADNQCKLELQGVKGGVDHAAAFGRIAFSCPQKELPDLEDLMKRENQKILTPLVSLDTPGKATVQVVILADPDGHEICFVGDEAFRELSKMDPEGSKLLDDAMAADKSDEWFAKHNKPKASG
Turning to B2, the binding entry was “binds”.
